# Out of some 78,000 compounds screened, about 1,800 (2.3%) were called active. Inconclusive means that the source gave no clear call. Such entries were picked first, then a sample of the others. Cut-off read from the data, not from the text of the source: active = inhibition above about 30%; inconclusive = mostly about 10% to 28%; inactive = weaker than that.
# By UniProt entry, the sequences of proteins in these tests, tags left out. Where a name states a change or a piece, a line headed by the entry shows the natural chain unless it says otherwise.
# UniProt Q01638: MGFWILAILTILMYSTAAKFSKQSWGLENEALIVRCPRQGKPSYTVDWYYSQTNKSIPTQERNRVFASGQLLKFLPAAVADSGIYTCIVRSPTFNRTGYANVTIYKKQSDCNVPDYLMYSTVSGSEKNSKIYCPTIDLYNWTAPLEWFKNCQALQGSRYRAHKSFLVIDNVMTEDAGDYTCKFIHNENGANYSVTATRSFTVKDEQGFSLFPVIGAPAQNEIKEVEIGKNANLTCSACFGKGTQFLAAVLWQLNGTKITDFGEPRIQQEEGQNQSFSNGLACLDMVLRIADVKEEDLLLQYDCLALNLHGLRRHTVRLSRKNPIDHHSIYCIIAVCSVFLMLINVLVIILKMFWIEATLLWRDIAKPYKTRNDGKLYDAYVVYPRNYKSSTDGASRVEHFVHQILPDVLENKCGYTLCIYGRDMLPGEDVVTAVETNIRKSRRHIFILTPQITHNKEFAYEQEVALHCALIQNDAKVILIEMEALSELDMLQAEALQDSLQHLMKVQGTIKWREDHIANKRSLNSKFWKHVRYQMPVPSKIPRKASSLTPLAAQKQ
# Molecular target: Interleukin-1 receptor-like 1 (Homo sapiens) (UniProt Q01638)
# Assay: blocks human ST2 binding to IL-33, primary screen, biochemical, AlphaLISA (AID 1259354)
# Details: AlphaLISA ST2-Fc/biotin-IL-33 interaction, 1 h; at 17 µM, stronger effect = higher value
row,Structure (SMILES),inhibition
1,NCC(O)COCCN1CCOCC1 (stereo not given),inactive
2,Cc1ccc2oc(-c3ccc(NC(=O)c4ccc([N+](=O)[O-])c(C)c4)cc3O)nc2c1,inconclusive: 29%
3,Cc1cc(NC(=O)c2ccccc2)sc1C,inconclusive: 28%
4,CCOc1ccc(NS(=O)(=O)c2ccc(NC(=O)c3ccccc3Br)cc2)cc1,inactive
5,C=CCn1c(C(C)NC(=O)c2cc(OC)c(OC)c(OC)c2)nc2ccccc21 (stereo not given),inconclusive: 18%
6,CN(C)C(=O)c1ccc(N2CCC(NCCN3CCCC(c4ccccc4)C3)CC2)cc1 (stereo not given),inconclusive: 12%
7,COc1cc2c(C(=O)NCCCN3CCN(C)CC3)cn(C)c(=O)c2cc1OC,inactive
8,CCc1ccc(C2(O)CC(C(F)(F)F)=NN2C(=O)c2ccc([N+](=O)[O-])cc2)cc1 (stereo not given),inconclusive: 28%
9,COc1cc(C=C2C(=O)c3ccccc3C2=O)ccc1OCc1ccccc1,inconclusive: 15%
10,Oc1ccc(C2CC(c3ccccc3O)=NN2)cc1 (stereo not given),inconclusive: 12%
11,Cc1ccc(C)n1-c1ccc(C(=O)O)c(C(=O)O)c1,active: 88%
12,CCCCC(=O)Nc1ccc(NC(=O)CS(C)(=O)=O)cc1C,inconclusive: 16%
13,O=c1[nH]c2c(oc3ccccc32)c(-c2ccccc2)c1-c1ccccc1,inactive
14,CCC(C(=O)Nc1ccc(Nc2nc(C)cc(Nc3ccc(OC)cc3)n2)cc1)c1ccccc1 (stereo not given),inconclusive: 24%
15,COCCNC(=O)CN1C(=O)/C(=C\c2ccc(C(F)(F)F)cc2)Sc2ccccc21,inconclusive: 18%
16,C=CCOc1ccccc1/C=C1/C(=O)N(c2ccc(Br)cc2)N=C1C,inconclusive: 22%
17,Cc1sc2nc3c(C(=O)N4CCC(Cc5ccccc5)CC4)cccn3c(=O)c2c1C,inconclusive: 11%
18,COCCC(=O)Nc1cc(C(=O)N2CCCCC2c2cccnc2)cc2nc(-c3ccccc3)n(C)c12 (stereo not given),inconclusive: 10%
19,O=C(Nc1sc2c(c1C(=O)N1CCOCC1)CCC2)c1ccccc1F,inconclusive: 22%
20,COc1ccc(-c2noc([C@@H]3C[C@H](NCc4ccc(N(C)C)cc4)CN3C)n2)cc1,inconclusive: 14%
21,Cc1cccc(C2c3[nH]c4ccccc4c3CCN2C(=O)CCN2CCCCO2)n1 (stereo not given),inactive
22,CC(=O)c1cccc(NC(=O)c2cc3ccccc3o2)c1,inconclusive: 13%
23,O=C(O)c1cc(-c2ccoc2)cc(S(=O)(=O)N2CCCC2)c1,inconclusive: 27%
24,Cc1ccc(C)c(NS(=O)(=O)c2ccc(Cl)cc2)c1,inconclusive: 11%

row,Structure (SMILES),inhibition
1,CC1=C[C@@H](CNC(=O)COc2ccccc2)[C@H](C(C)C)C[C@H]1CC(=O)N1CCN(C)CC1,inconclusive: 12%
2,O=C(NC1CCCCCC1)c1oc(=O)c2ccccc2c1-c1ccccc1,inconclusive: 13%
3,CCn1cc(S(=O)(=O)N[C@@H]2CC[C@@H](N)C2)cn1,inconclusive: 21%
4,Fc1cnc(-c2ccc(-c3ccn[nH]3)cc2)nc1N1CCOCC1,inactive
5,N#Cc1nc(COc2ccccc2F)oc1N1CCCCC1,active: 53%
6,O=C1NC(=Nc2ccccc2)S/C1=C/c1ccc(O)c(O)c1,active: 35%
7,CC(=O)NC1=C(N(C)C)C(=O)c2ccccc2C1=O,inconclusive: 16%
8,CCC(CC)C(=O)N1CC[C@H](O)C[C@@H]1C(=O)O,inconclusive: 17%
9,CC(C)CCn1c(Oc2ccc(Cl)cc2)nc2c1c(=O)n(C)c(=O)n2C,inconclusive: 10%
10,CC(=O)N1CCN(C[C@@H]2C=C(C)[C@H](Cc3nnc(-c4cccnc4)o3)C[C@H]2C(C)C)CC1,inconclusive: 16%
11,CC(C)c1ccc(OCC(O)CN2CCN(Cc3ccc4c(c3)OCO4)CC2)cc1 (stereo not given),inactive
12,Cc1cc(C)cc(NC(=O)Nc2c(C)nc3nc(C)[nH]n3c2=O)c1,inconclusive: 10%
13,O/N=C1\CC(Sc2nc(-c3ccccc3)cc(C(F)F)n2)[C@H]2CO[C@@H]1O2 (stereo not given in full),inconclusive: 10%
14,Oc1ccc(Cl)cc1N=Cc1cccc(Cl)c1,inconclusive: 20%
15,O=C1c2ccccc2C(=O)N1CC(O)COc1ccccc1Cl (stereo not given),inconclusive: 15%
16,O=C(c1cc(Cl)ccc1Cl)N1CCCc2ccccc21,inactive
17,CCC1CCCCN1C(=O)c1cnn(-c2nccc(-c3cc(C)sc3C)n2)c1COC (stereo not given),inconclusive: 13%
18,COc1cccc(Cn2c(CNC(=O)C3CCC3)nc3cccnc32)c1,inactive
19,COc1ccc(CNc2ncnc3c2cnn3-c2ccc(Cl)cc2)cc1,inconclusive: 13%
20,CC(=O)NCC1CCC2(CCN(c3nccc(-c4ccc(C)nc4C)n3)CC2)O1 (stereo not given),inactive
21,O=C(O)c1cccnc1CN(Cc1ccccc1)[C@@H]1CCCC[C@H]1O,inactive
22,O=C1CSC(c2ccc(Cl)cc2)N1c1ccc(Br)cn1 (stereo not given),inconclusive: 10%
23,COc1cc2c(cc1OC)[C@@H](c1ccccc1)CN(C)CC2,inconclusive: 11%
24,C=CCN1CCN(CCC(=O)NC2CCCCCC2)CC1,inconclusive: 14%

row,Structure (SMILES),inhibition
1,CC(C)CC(=O)Nc1c(-c2ccc(F)cc2)nc2ccccn12,inactive
2,COC(=O)c1sc2nc(-c3ccccc3)ccc2c1N,inconclusive: 14%
3,COc1ccc2cc(-c3[nH]ncc3CN3CCN(c4ccc(Cl)cn4)CC3)ccc2c1,inactive
4,CC1CCc2nc(SC3CC(=O)N(c4ccccc4)C3=O)c(C#N)cc2C1 (stereo not given),inactive
5,Cc1ccc(C)n1-c1ccc(OCC(=O)O)cc1,active: 64%
6,CC1=C(/C=C/C(C)=C/C=C/C(C)=C/C(=O)Nc2ccc(O)cc2)C(C)(C)CCC1,inconclusive: 15%
7,CCc1ccc(C2CC(c3ccc(OC)cc3)n3nc(N)nc3N2)cc1 (stereo not given),inconclusive: 15%
8,Cc1cc(C)n(C(C)C(=O)N(C)CC(=O)c2ccc(O)cc2)n1 (stereo not given),inconclusive: 22%
9,C=CCNCCCOc1ccc(C(C)C)c(C)c1,inconclusive: 10%
10,O=C(NCCCN1CCOCC1)c1cc(-c2ccc(Br)cc2)on1,inconclusive: 15%
11,COc1ccc(CN2Cc3[nH]cnc3C[C@H]2C(=O)NCc2ccccc2)c2ccccc12,inconclusive: 14%
12,COc1cc(C2Oc3ccccc3C=C2[N+](=O)[O-])ccc1OCc1ccccc1 (stereo not given),active: 46%
13,O=C(O)C[C@@H]1CCN(C(=O)C2CCC2)C[C@@H]1CCN1CCN(c2cccc(C(F)(F)F)c2)CC1,inconclusive: 25%
14,Cc1cc(N2CCCCC2)nc(N2CCN(S(=O)(=O)c3ccccc3F)CC2)n1,inconclusive: 11%
15,COC(=O)CNc1c(-c2ccccc2)nc2ccccn12,inconclusive: 15%
16,CN(C)CCOC(=O)c1ccc2c(c1)OCCO2,inactive
17,COc1ccc(OC)c(C2=C/C(=C/c3cccc(Cl)c3)C(=O)O2)c1,inconclusive: 28%
18,O=C(Nc1ccccc1[N+](=O)[O-])C(c1ccccc1)c1ccccc1,inconclusive: 25%
19,Cc1ccc(NC(=O)NCC2CCCN(Cc3nccn3C)C2)cc1 (stereo not given),inconclusive: 16%
20,O=C(c1coc2nc3ccccc3nc12)N1CCOCC1,inactive
21,Cc1ccsc1[C@@H]1CCN(C(=O)CN(C)Cc2cccnc2)C[C@H]1O,inconclusive: 14%
22,CN(C)CCCN(CC1CCN(C2Cc3ccccc3C2)CC1)C(=O)C1CCCC1,inconclusive: 28%
23,CC(=O)C(C)n1c(CN(Cc2ccccc2)Cc2ccccc2)nc2c1c(=O)[nH]c(=O)n2C (stereo not given),inactive
24,Cc1ccc(Cn2cnc3c(cnn3-c3ccc(Cl)cc3)c2=O)cc1,inconclusive: 11%

# Filtered by structure: the entries above with a cyano group.
row,Structure (SMILES),inhibition
5,N#Cc1nc(COc2ccccc2F)oc1N1CCCCC1,active: 53%
4,CC1CCc2nc(SC3CC(=O)N(c4ccccc4)C3=O)c(C#N)cc2C1 (stereo not given),inactive

# (listing goes on)

row,Structure (SMILES),inhibition
1,CC(C)NC(=O)C(CCO)NC(C)C (stereo not given),inactive
2,COCCSc1ncc(-c2cccc(F)c2)c(C2CCN(C(=O)/C=C/c3ccccn3)CC2)n1,inconclusive: 15%
3,O=C(CN1CCCN(S(=O)(=O)c2ccc(Br)cc2)CC1)c1ccc(O)c(O)c1,inconclusive: 15%
4,COC1=CC(=O)O[C@@H](/C=C/c2ccccc2)[C@@H]1O,inconclusive: 10%
5,Cn1ccnc1-c1nccn1CC(c1ccc(F)cc1)N1CCCCC1 (stereo not given),inconclusive: 20%
6,CC(=O)Nc1ccc(CN2C[C@H](O)C[C@H]2c2nc(-c3ccc(OC(F)(F)F)cc3)no2)cc1,inconclusive: 16%
7,CCc1nc(C)c(C(=O)N2CC[C@@H](c3sccc3C)[C@H](O)C2)o1,inactive
8,CC(C)(C1NCCc2[nH]cnc21)N1CCOCC1 (stereo not given),inactive
9,COc1cccc(NS(=O)(=O)C[C@@]23CC[C@H](CC2=O)C3(C)C)c1,inactive
10,COc1ccc2c(c1)OCC/C2=N/OC(=O)c1ccccc1Cl,inconclusive: 12%
11,COc1ccc(C(=O)N2C[C@@H](O)[C@H](NCCCc3ccccc3)C2)cc1,inconclusive: 21%
12,COc1cc(Nc2ncnc(N)c2[N+](=O)[O-])cc(OC)c1OC,inactive
13,COC(=O)C1=C(C)Nc2nnnn2C1c1ccc(Br)cc1 (stereo not given),inactive
14,CNc1ncnc2c1C(c1ccc(Br)cc1)c1c(NC)ncnc1O2,inactive
15,O=C(O)c1cccc(NC(=O)c2cccc(Br)c2)c1,inactive
16,COCCN[C@H]1[C@@H]2OC[C@@H](O2)[C@@H](NCc2ccc(N(C)C)cc2)[C@@H]1O,inactive
17,C=CCSc1nnc2c(n1)OC(C)(C)Nc1ccc(Br)cc1-2,inconclusive: 17%
18,Cn1c(=O)c2c(nc(Oc3ccccc3)n2Cc2ccc(Cl)cc2)n(C)c1=O,inconclusive: 17%
19,O=C1OCCCN1CCn1ccnc1-c1cnc(-c2ccccc2)s1,inactive
20,O=C(NC(Cn1ccnc1)c1ccccc1)c1ccc2c(c1)OCO2 (stereo not given),inconclusive: 18%
21,O=C(Nc1nc2ccccc2n1CCN1CCOCC1)c1ccccc1,inconclusive: 19%
22,CC1CCN(c2ccc(F)cc2[N+](=O)[O-])CC1,inconclusive: 23%
23,O=C(Nc1ccc(Cl)c(Cl)c1)Nc1ccccc1O,inconclusive: 15%

# Reference: PubChem BioAssay AID1259354 (Paczesny and Yang Labs, IUPUI and University of Michigan, 2018)
